Data published in PubChem BioAssay AID1671190 (National Center for Advancing Translational Sciences (NCATS), 2021).
Where “and” joins values, the source holds several entries; their conditions need not be identical. Equal entries are not always repeated. Out of some 580,000 compounds screened, about 6,100 (1.1%) were called active. The shares of active, inactive and inconclusive entries below differ from those in the screen. The call rests on the fitted dose curve; in most records, active means well fitted inhibition curve with a large enough effect; inconclusive means small, poorly fitted or top-dose-only effect, or another doubt; inactive means no such curve, though single readings can be large or run the other way. Potencies beside an inconclusive call are fits to weak or partial responses and may not hold up.

Protein sequences, listed by entry. Tags and fused reporters are not part of them. Lines headed by an entry give the natural chain unless they say otherwise; changes in a name come on top.
UniProt P18054: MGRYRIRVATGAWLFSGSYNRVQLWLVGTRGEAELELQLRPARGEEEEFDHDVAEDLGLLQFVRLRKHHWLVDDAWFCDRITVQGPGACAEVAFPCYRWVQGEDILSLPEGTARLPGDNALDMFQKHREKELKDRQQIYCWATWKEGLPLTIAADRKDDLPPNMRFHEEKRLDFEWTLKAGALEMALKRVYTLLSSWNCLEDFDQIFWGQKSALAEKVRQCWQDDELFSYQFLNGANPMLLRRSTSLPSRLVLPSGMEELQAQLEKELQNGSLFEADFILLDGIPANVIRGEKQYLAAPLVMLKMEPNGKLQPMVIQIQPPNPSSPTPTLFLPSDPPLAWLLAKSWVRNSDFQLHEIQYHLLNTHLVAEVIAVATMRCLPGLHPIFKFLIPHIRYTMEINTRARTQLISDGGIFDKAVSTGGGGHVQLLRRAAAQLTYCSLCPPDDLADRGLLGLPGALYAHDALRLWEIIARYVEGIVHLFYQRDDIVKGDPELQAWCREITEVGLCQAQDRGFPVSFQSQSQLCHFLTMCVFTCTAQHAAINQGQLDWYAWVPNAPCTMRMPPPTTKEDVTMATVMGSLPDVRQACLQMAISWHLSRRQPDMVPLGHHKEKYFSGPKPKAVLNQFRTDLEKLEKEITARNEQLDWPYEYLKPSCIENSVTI

What follows are compounds tested against Polyunsaturated fatty acid lipoxygenase ALOX12 (Homo sapiens) (UniProt P18054) (assay: Primary qHTS assay for inhibitors of human arachidonate 12S-lipoxygenase (ALOX12): Round 2). Settings: purified 12hLO, xylenol orange hydroperoxide absorbance; activity change, negative = inhibition: at 108 µM (top of the series) unless noted.
Outline: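 Hydroperoxide product was detected by ferrous iron/xylenol orange as the 573 to 405 nm absorbance ratio. Arachidonic acid at 40 uM (final) was turned over for 30 min at room temperature by 150 nM human 12hLO, pH 7.0 Hepes buffer, after 15 min compound preincubation.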
On the % scale 0 is the no-effect control and ±100 the full control effect; potency means the concentration at half of the fitted maximal effect.

SMILES | Potency | activity change, negative = inhibition
Cc1cccc(C(=O)NC2C(=O)NNC2c2ccc(Cl)cc2)c1 (stereo not drawn) | active: 14.1 µM | –
CC(=O)c1ccc(NC(=O)CSc2ncc(-c3ccc(F)cc3)o2)cc1 | inconclusive: 39.8 µM [inhibitor, partial curve, poor fit] | –
N#CC1=C2C=CC=CN2CC1=O | inconclusive: 3.16 µM [inhibitor, partial curve, poor fit] | –
CCOC(=O)c1cnc(-n2nc(C)cc2C)nc1NC(C)c1ccccc1 (stereo not drawn) | inconclusive: 15.8 µM [inhibitor, partial curve, poor fit] | –
COc1ccc(CCCc2nnc(SCC(=O)Nc3ccc(C)c(C)c3)o2)cc1 | inconclusive: 5.62 µM [inhibitor, full curve] and inconclusive: 7.94 µM [inhibitor, full curve, poor fit] | –
O=[N+]([O-])c1cccc(Oc2cnccn2)c1 | – | inactive: 7.06%
Cc1cc(=O)[nH]c2n[nH]c(-c3ccccc3)c12 | – | inactive: 0.62%
Cc1ccccc1OCC(=O)Nc1ccc(N2CCN(S(C)(=O)=O)CC2)cc1 | – | inactive: -21.8%
Cc1ccc(CSCC(=O)Nc2ccccc2C(=O)O)cc1 | inconclusive: 44.7 µM [inhibitor, partial curve] | –
Cc1c(C(=O)NCCN2CCOCC2)oc2ccc(Br)cc12 | – | inactive: 2.79%
N#Cc1c(/N=C/c2cc(Br)cs2)sc2c1CCC2 | inconclusive: 31.6 µM [inhibitor, single point] | –
O=C(NCC(c1ccco1)N1CCc2ccccc2C1)c1ccccc1Cl (stereo not drawn) | inconclusive: 63.1 µM [inhibitor, partial curve, poor fit] | –
Cc1ccc(C)c(C(=O)Nc2nc3ccccc3[nH]2)c1 | – | inconclusive: -30.4% [inhibitor]
CCOC(=O)[C@H]1Nc2ccc(Cl)cc2[C@@H]2[C@H]1C1CC(c3ccccc31)N2C(=O)OCc1ccccc1 (stereo partly drawn) | inconclusive: 126 µM [inhibitor, single point] | –
CC(Sc1ccc(Cl)cc1)C(=O)Nc1ccc(C(C)C)cc1 (stereo not drawn) | – | inactive: -25.4%
Cc1ccc2oc(C(=O)Nc3cccc(C(=O)NC4CC4)c3)cc(=O)c2c1 | inconclusive: 89.1 µM [inhibitor, single point] | –
O=C(c1ccccc1)N1CCC(c2n[nH]c(=O)n2-c2ccccc2)CC1 | – | inactive: 18.9%
Cc1ccccc1-c1n[nH]c(=S)n1Cc1ccccc1 | inconclusive: 50.1 µM [inhibitor, partial curve, poor fit] | –
c1ccc(-c2nc(NCCCn3ccnc3)c3ccccc3n2)cc1 | – | inactive: 3.89%
CCc1nc(N)sc1C | inconclusive: 20 µM [inhibitor, partial curve, poor fit] | –
CCn1c(CNC(=O)c2ccccc2F)cc2cc(C)ccc21 | inconclusive: 35.5 µM [inhibitor, single point] | –
O=S1(=O)N=C(Nc2ccc(S(=O)(=O)N3CCCCC3)cc2)c2ccccc21 | inconclusive: 44.7 µM [inhibitor, partial curve, poor fit] | –
COc1ccc2[nH]cc(CCNc3nc(-c4cccc(NS(C)(=O)=O)c4)nc4ccccc34)c2c1 | inconclusive: 10 µM [inhibitor, partial curve, poor fit] | –

SMILES | Potency | activity change, negative = inhibition
O=C(CSc1nc2ccccc2c(=O)n1CC1CCCO1)Nc1ccccc1 (stereo not drawn) | inconclusive: 50.1 µM [inhibitor, partial curve, poor fit] | –
CC1(C)O[C@@H]2[C@@H](CO[C@@]3(COS(N)(=O)=O)OC(C)(C)O[C@@H]23)O1 | – | inactive: -1.22% [at 22.9 µM]
NC(=S)NN=C1CCC2(CCCCC2)CC1 | inconclusive: 10 µM [inhibitor, full curve, poor fit] | –
CN(C)c1ccc(NC(=O)COC(=O)c2cccc(S(=O)(=O)N3CCc4ccccc43)c2)cc1 | inconclusive: 56.2 µM [inhibitor, partial curve, poor fit] | –
CCOC(=O)C(C(=O)OCC)C(c1ccccc1)N1CCN(c2ccccc2)CC1 (stereo not drawn) | – | inactive: 10.7%
O=C(NCC(c1ccco1)N1CCOCC1)c1ccc(C(F)(F)F)cc1 (stereo not drawn) | inconclusive: 56.2 µM [inhibitor, partial curve, poor fit] | –
CC1(C)NC(=O)N(CC(=O)OCC(=O)NC(=O)c2ccccc2)C1=O | – | inactive: -12%
CCOc1cc(NC(=S)Nc2cccc(C)c2)c(OCC)cc1NC(=O)CC(C)C | inconclusive: 50.1 µM [inhibitor, partial curve, poor fit] | –
COc1ccc(N2CN(CCN3CCOCC3)Cn3c2nc(C)c(C)c3=O)cc1 | – | inactive: 9.45%
O=S(=O)(Nc1nc2ccccc2nc1NCC1CCCO1)c1ccccc1 (stereo not drawn) | inconclusive: 5.01 µM [inhibitor, full curve, poor fit] | –
CCCC12CN(C(=O)CC)CC(C)(CN(C(=O)CC)C1)C2=O | inconclusive: 89.1 µM [inhibitor, single point] | –
Nc1c(N(Cc2ccco2)C(=O)COc2ccccc2Cl)c(=O)[nH]c(=O)n1Cc1ccccc1 | – | inactive: 18.1%
CC(C)(C)OC(=O)NCCCC[C@H](NC(=O)c1[nH]cnc1C(=O)Nc1ccccc1)C(=O)OC(C)(C)C | – | inactive: 5.86%
Cc1ccccc1CN1C(=O)C(O)(CC(=O)c2ccc(F)cc2)c2cc(Cl)ccc21 (stereo not drawn) | inconclusive: 10 µM [inhibitor, full curve, poor fit] | –
COc1ccc(C2C(=O)c3ccccc3C2=O)c(OC)c1 | inconclusive: 31.6 µM [inhibitor, single point] | –
Fc1ccc(Nc2nc(-c3ccncc3)nc3ccccc23)cc1 | – | inactive: 11.3%
CCOC(=O)c1ccccc1NC(=O)CSc1ncnc2c(-c3ccccc3)c[nH]c12 | – | inactive: -9.66%
O=C1N/C(=C/c2ccc(N3CCOCC3)cc2)C(=O)N1Cc1ccc(F)cc1 | – | inactive: -1.18%
COc1ccc(S(=O)(=O)N2CCC[C@H]2C(=O)N2CCC[C@H]2C(=O)N(C)Cc2ccccc2)cc1C | inconclusive: 126 µM [inhibitor, single point] | –
O=C(O)CCn1ncc2cc(OCC3CCN(C(=O)Cc4ccccc4)CC3)ccc21 | – | inactive: -4.98% [at 176 µM]
c1ccc(-c2noc(CSc3nnnn3C3CCCCC3)n2)cc1 | inconclusive: 44.7 µM [inhibitor, partial curve, poor fit] | –
CCOC(=O)c1ccc(NC(=O)CSc2nc(=O)[nH]nc2C)cc1 | – | inactive: -3.72%
C[C@H](CO)N1C[C@H](C)[C@@H](CN(C)S(=O)(=O)c2ccc(F)cc2)Oc2c(NC(=O)NC3CCCCC3)cccc2C1=O | – | inactive: 20.2%

SMILES | Potency | activity change, negative = inhibition
CCC(C)c1c(O)nc(SCC(=O)c2ccccc2)[nH]c1=O (stereo not drawn) | inconclusive: 39.8 µM [inhibitor, partial curve] | –
COc1ccc(-c2cc(C(=O)N3CCCC3)c3ccccc3n2)cc1OC | inconclusive: 22.4 µM [inhibitor, single point] | –
Cc1nc(C)c(C(=O)NNS(=O)(=O)c2ccccc2)s1 | inconclusive: 50.1 µM [inhibitor, partial curve, poor fit] | –
CC(Sc1ccc2ccccc2n1)C(=O)NC1(C#N)CCCCC1 (stereo not drawn) | – | inactive: 5.42%
COC(=O)c1c(C)[nH]c(C(=O)/C=C/c2ccc(C)cc2)c1C | – | inactive: 0%
CC1(C(=O)NCc2cccc3ccccc23)CCN1Cc1cc2ccccc2o1 (stereo not drawn) | – | inactive: 7.47%
COc1ccc2nc(C[C@@H]3C[C@@H](C(C)C)[C@H](CNC(=O)CC(C)(C)CC(=O)O)C=C3C)[nH]c2c1 | inconclusive: 7.94 µM [inhibitor, full curve] | –
CCCCC1Cc2[nH][nH]c(=O)c2C(c2ccc(Cl)cc2)O1 (stereo not drawn) | inconclusive: 50.1 µM [inhibitor, partial curve, poor fit] | –
Cc1cc(-c2n[nH]c(=S)n2-c2ccc(C)c(C)c2)no1 | inconclusive: 44.7 µM [inhibitor, partial curve, poor fit] | –
Cc1ccccc1-n1c(-c2ccc3ccccc3n2)n[nH]c1=S | inconclusive: 79.4 µM [inhibitor, partial curve, poor fit] | –
Cc1cccc(-c2noc(Cc3ccc(Cl)cc3)n2)c1 | inconclusive: 100 µM [inhibitor, single point] | –
CCN1CCN(CC2CCCN2)CC1 (stereo not drawn) | inconclusive: 0.0794 µM [inhibitor, full curve, poor fit] | –
O=C(/C=C\N1CCOCC1)c1ccc(Br)cc1 | inconclusive: 44.7 µM [inhibitor, partial curve, poor fit] | –
Cc1oncc1-c1csc(-c2ccccc2Cl)n1 | – | inactive: -13%
CCN(CC)c1nc2ccccc2[nH]1 | – | inactive: 1.99%
COc1cc(C2Nc3ccc(C)cc3[C@H]3OCCC[C@@H]23)cc(Cl)c1O (stereo partly drawn) | inconclusive: 89.1 µM [inhibitor, partial curve, poor fit] | –
CCC1CCCCN1Cc1ccc(OC)c(C)c1 (stereo not drawn) | inconclusive: 1.41 µM [inhibitor, full curve, poor fit] | –
C=CCn1c(SCC(=O)Nc2cc(C)on2)nnc1-c1ccccc1OC | – | inactive: 33.5%
CC(C)n1c(SCC(=O)Nc2nc3c(s2)CCCC3)nc2c1c(=O)n(C)c(=O)n2C | – | inactive: 0%
O=S(=O)(Nc1ccc(F)cc1)c1ccc(-c2cnc(C3CC3)o2)cc1 | inconclusive: 63.1 µM [inhibitor, partial curve, poor fit] | –
CN(C)CCNC(=O)c1cccc(-c2cc(NC=O)c3ncc(-c4cccc(C(F)(F)F)c4)n3c2)c1 | inconclusive: 100 µM [inhibitor, single point] | –
C[C@@H]1CCCCO[C@H](CN(C)C)[C@H](C)CN([C@@H](C)CO)C(=O)c2cc(NC(=O)Nc3ccc(C(F)(F)F)cc3)ccc2O1 | inconclusive: 89.1 µM [inhibitor, partial curve, poor fit] | –

Compounds from the list above that contain a CF3 group:
SMILES | Potency | activity change, negative = inhibition
O=C(NCC(c1ccco1)N1CCOCC1)c1ccc(C(F)(F)F)cc1 (stereo not drawn) | inconclusive: 56.2 µM [inhibitor, partial curve, poor fit] | –
CN(C)CCNC(=O)c1cccc(-c2cc(NC=O)c3ncc(-c4cccc(C(F)(F)F)c4)n3c2)c1 | inconclusive: 100 µM [inhibitor, single point] | –
C[C@@H]1CCCCO[C@H](CN(C)C)[C@H](C)CN([C@@H](C)CO)C(=O)c2cc(NC(=O)Nc3ccc(C(F)(F)F)cc3)ccc2O1 | inconclusive: 89.1 µM [inhibitor, partial curve, poor fit] | –
